{"source": "patent US20220280437A1", "about": "“FORMULATION” (priority 2019, published 2022)", "assay": "physchem", "assay_type": "physicochemical", "conditions": "pH 7", "procedure": "Note that, in the present invention, the octanol/water partition coefficient is determined based on active ingredient concentration of each phase by adding an active ingredient to a flask containing octanol and an aqueous buffer of pH 7, then shaking the flask, and determining the concentration. Specifically, it can be determined by calculation using an equation: Octanol/water partition coefficient=Log10 (concentration in octanol phase/concentration in aqueous phase).", "note": "Counter-ions that a name gives are not always drawn."}
{"smiles": "COc1cc2c(cc1OC)C(=O)C(CC1CCN(Cc3ccccc3)CC1)C2", "note": "(centres unmarked) [donepezil hydrochloride]", "values": [{"measurement": "logD", "result": 4.3}, {"measurement": "octanol/water partition coefficient", "result": 4.3}]}
